Laboratory results published in the supplement of paper PMC4749390.
Counter-ions that a name gives are not always drawn. Some of the results follow. This data set is noisy: repeats of one test often differ as much as different tests do.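 JEG3 cells stably carry tetracycline-induced wild-type human LRH-1, a heavily sumoylated nuclear receptor. APOC3 and MUC1 are SUMO-sensitive transcripts, raised by SUMO-less LRH-1 or UBC9 knockdown, measured by RT-qPCR against TBP and DMSO controls. A robust Z-score above +2 or below -2 marked a primary hit before toxicity and TBP filtering.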

tested on: JEG3 expressing hLRH-1; assay: MUC1 transcript change (ddCt vs TBP and DMSO), Z-score over library; higher = higher MUC1 expression; conditions: 10 µM; time (hr): 24

Row | SMILES | MUC1 transcript change (Z-score)
1 | OC[C@@H](O)[C@H](O)[C@@H](O)[C@H](O)CO [sorbitol] | 0.124
2 | Nc1[nH]cnc2ncnc1-2 [adenine] | 0.76
3 | CC12CCC(=O)C=C1CCC1C2[C@@H](O)CC2(C)C1CC[C@]2(O)C(=O)COP(=O)(O)O (stereo partly specified) [hydrocortisone sodium phosphate] | -0.83
4 | O=C(O)c1cc(O)nc(O)n1 [orotic acid] | -0.0954
5 | NC(=O)NS(=O)(=O)c1ccc(N)cc1 [sulfacarbamide] | -2.51
6 | O=C(O)c1ccc(S(=O)(=O)N(Cl)Cl)cc1 [halazone] | 1.71
7 | CC[n+]1c(-c2ccccc2)c2cc(N)ccc2c2ccc(N)cc21 [homidium bromide] | 1.14
8 | Cc1cc(N)c2ccccc2[n+]1CCCCCCCCCC[n+]1c(C)cc(N)c2ccccc21 [dequalinium chloride] | -0.431
9 | OC[C@@H](O)C(O[C@@H]1O[C@H](CO)[C@H](O)[C@H](O)[C@H]1O)[C@H](O)[C@@H](O)CO (stereo partly drawn) [d-lactitol monohydrate] | 0.265
10 | Oc1ccc(Cl)c2c1CCC2 [chlorindanol] | 0.571
11 | COc1cc2c3cc1Oc1cc(ccc1O)C[C@@H]1c4c(cc(OC)c(O)c4Oc4ccc(cc4)C[C@@H]3N(C)CC2)CC[N+]1(C)C [tubocurarine chloride] | 0.514
12 | COc1ccc(Cl)cc1C(=O)NCCc1ccc(S(=O)(=O)NC(=O)NC2CCCCC2)cc1 [Glibenclamide] | -0.515
13 | CC(=O)OCC(=O)[C@H]1CC[C@H]2[C@@H]3CCC4=CC(=O)CC[C@]4(C)[C@H]3CC[C@]12C [desoxycorticosterone acetate] | 0.838
14 | CC(C)CCCC(C)NC(C)C (stereo unspecified) [iproheptine] | 0.0959
15 | CC1(C)[C@@H](OC(=O)CCC(=O)O)CC[C@]2(C)[C@H]3C(=O)C=C4[C@@H]5C[C@@](C)(C(=O)O)CC[C@]5(C)CC[C@@]4(C)[C@]3(C)CC[C@@H]12 [carbenoxolone sodium] | 0.187
16 | CCN(CC)CCOCCOC(=O)C(CC)(CC)c1ccccc1 [oxelaidin citrate] | 0.45
17 | CCN(CC)CCOc1ccc(/C(=C(\Cl)c2ccccc2)c2ccccc2)cc1 [clomiphene citrate] | 0.392
18 | O=C(O)C1CSCN1 (stereo unspecified) [timonacic] | 0.268
19 | CCCCc1oc2ccccc2c1C(=O)c1cc(I)c(OCCN(CC)CC)c(I)c1 [Amiodarone hydrochloride] | 0.249
20 | CC[C@@H](CO)NCCN[C@@H](CC)CO [ethambutol hydrochloride] | -0.221
21 | C[C@]1(Cn2ccnn2)[C@H](C(=O)O)N2C(=O)C[C@H]2S1(=O)=O [tazobactam] | -0.454

Sorted by count of non-hydrogen atoms (rising): part of the list above
Row | SMILES | MUC1 transcript change (Z-score)
7 | CC[n+]1c(-c2ccccc2)c2cc(N)ccc2c2ccc(N)cc21 [homidium bromide] | 1.14
3 | CC12CCC(=O)C=C1CCC1C2[C@@H](O)CC2(C)C1CC[C@]2(O)C(=O)COP(=O)(O)O (stereo partly specified) [hydrocortisone sodium phosphate] | -0.83
15 | CC1(C)[C@@H](OC(=O)CCC(=O)O)CC[C@]2(C)[C@H]3C(=O)C=C4[C@@H]5C[C@@](C)(C(=O)O)CC[C@]5(C)CC[C@@]4(C)[C@]3(C)CC[C@@H]12 [carbenoxolone sodium] | 0.187
